No constants are given. Whether binding was seen depends on the method and setting. Binding seen in cells or lysates may run through a third protein. Some results given as binding are weak or reduced against the parent protein; the word gives no strength.
Assays:
[1] = target: Myc-tagged Cullin-1 (UniProt Q13616); experiment: co-IP; Fig. 6b: Cullin-1 pulled down from cells transfected with Cullin-1 with or without p43-FLIP(L); SDS-free RIPA buffer, 4 °C; blots for p43-FLIP(L) and endogenous Rbx1, Skp1, Skp2, TRAF2, caspase-8, FADD
[2] = target: TRAIL-R2 (human (endogenous in HCT116)) (UniProt O14763); experiment: co-IP; TRAIL-R2 DISC IP: anti-TRAIL-R2 agonist antibody AMG655 (Conatumumab) on Dynabeads added to live cells (receptor activated, up to 3 h); DISC IP buffer (20 mM Tris 7.4, 150 mM NaCl, 0.2% NP-40, 10% glycerol), 4 °C; blots; HCT116 (parental, BAX-null, p53-null, FADD or caspase-8 knockout), HT29, A549, HAP1; with or without zVAD-fmk, MG132, siRNAs
[3] = target: TRAIL-R2 (human (endogenous in HCT116)) (UniProt O14763); experiment: co-IP; TRAIL-R2 DISC IP (1 h) as a1, in RKO cells
[4] = target: TRAIL-R2 (human (endogenous in HCT116)) (UniProt O14763); experiment: co-IP; TRAIL-R2 DISC IP timecourse, HCT116 BAX-null cells, 0 min: unstimulated TRAIL-R2 (pre-ligand association complex, PLAC)
[5] = target: FADD (transfected) (UniProt Q13158); experiment: co-IP; cells transfected with FLIP, procaspase-8, FADD, Cullin-1 or Skp2 constructs (cell line not stated); SDS-free RIPA buffer (50 mM Tris pH 7.4, 150 mM NaCl, 5 mM EDTA, 1% Triton X-100), 4 °C; IP with FLAG (M2) magnetic beads, FLIP (H-202) antibody or Myc-Tag (9B11) antibody (which one in which panel is not stated); blots; with or without co-transfected Cullin-1 or procaspase-8
[6] = target: FLAG-tagged procaspase-8 (UniProt Q14790); experiment: as above

By UniProt entry, the sequences of proteins in these tests, tags left out. Residues count along the entry.
UniProt Q13616: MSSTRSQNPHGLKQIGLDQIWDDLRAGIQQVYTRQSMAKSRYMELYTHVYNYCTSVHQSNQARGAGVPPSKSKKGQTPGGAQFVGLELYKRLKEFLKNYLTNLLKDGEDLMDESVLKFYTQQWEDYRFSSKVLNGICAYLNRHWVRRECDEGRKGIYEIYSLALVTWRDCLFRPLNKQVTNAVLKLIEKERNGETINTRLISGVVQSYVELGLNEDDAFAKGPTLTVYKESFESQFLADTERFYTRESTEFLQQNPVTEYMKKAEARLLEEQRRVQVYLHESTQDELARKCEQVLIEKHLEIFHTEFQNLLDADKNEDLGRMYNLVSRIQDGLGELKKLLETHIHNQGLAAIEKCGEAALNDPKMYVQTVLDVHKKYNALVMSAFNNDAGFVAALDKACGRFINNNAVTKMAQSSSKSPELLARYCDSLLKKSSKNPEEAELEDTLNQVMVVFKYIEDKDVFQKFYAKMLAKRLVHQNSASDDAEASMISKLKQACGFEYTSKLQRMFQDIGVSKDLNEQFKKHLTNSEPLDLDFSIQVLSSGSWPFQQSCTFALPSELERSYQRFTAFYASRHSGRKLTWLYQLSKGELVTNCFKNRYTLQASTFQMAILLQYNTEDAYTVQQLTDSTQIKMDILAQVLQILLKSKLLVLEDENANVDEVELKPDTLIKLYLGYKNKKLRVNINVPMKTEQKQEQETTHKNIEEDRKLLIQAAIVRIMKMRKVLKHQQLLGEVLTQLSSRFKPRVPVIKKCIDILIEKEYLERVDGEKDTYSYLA
UniProt O14763, residues 56-440: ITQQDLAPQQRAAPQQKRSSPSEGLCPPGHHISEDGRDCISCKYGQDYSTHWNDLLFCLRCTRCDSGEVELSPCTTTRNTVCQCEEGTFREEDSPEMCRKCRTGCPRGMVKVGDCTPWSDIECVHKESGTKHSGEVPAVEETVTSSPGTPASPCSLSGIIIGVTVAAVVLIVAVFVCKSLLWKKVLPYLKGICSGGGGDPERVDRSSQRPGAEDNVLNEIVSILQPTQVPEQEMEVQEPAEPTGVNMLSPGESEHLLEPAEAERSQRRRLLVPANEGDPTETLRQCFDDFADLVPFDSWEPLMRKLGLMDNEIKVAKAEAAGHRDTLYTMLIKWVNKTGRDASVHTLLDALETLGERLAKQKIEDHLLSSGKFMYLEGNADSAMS
UniProt Q13158: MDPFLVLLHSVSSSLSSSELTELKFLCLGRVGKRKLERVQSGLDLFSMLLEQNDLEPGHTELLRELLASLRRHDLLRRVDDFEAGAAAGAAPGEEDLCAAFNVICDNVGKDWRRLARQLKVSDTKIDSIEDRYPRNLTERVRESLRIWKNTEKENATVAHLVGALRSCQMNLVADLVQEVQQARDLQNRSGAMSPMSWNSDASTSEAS
UniProt Q14790: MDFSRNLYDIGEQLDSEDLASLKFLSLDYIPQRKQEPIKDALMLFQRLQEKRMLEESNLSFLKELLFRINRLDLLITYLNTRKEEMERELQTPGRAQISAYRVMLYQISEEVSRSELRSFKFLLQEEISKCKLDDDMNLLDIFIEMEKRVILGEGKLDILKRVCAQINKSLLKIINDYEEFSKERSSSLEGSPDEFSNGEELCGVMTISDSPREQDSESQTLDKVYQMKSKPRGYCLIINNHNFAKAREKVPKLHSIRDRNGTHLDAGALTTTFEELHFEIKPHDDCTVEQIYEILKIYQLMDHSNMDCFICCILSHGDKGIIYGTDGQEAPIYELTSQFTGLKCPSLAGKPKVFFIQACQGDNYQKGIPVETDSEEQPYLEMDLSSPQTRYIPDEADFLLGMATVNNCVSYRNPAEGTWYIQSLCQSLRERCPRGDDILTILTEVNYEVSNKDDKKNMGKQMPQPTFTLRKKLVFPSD
UniProt Q13546: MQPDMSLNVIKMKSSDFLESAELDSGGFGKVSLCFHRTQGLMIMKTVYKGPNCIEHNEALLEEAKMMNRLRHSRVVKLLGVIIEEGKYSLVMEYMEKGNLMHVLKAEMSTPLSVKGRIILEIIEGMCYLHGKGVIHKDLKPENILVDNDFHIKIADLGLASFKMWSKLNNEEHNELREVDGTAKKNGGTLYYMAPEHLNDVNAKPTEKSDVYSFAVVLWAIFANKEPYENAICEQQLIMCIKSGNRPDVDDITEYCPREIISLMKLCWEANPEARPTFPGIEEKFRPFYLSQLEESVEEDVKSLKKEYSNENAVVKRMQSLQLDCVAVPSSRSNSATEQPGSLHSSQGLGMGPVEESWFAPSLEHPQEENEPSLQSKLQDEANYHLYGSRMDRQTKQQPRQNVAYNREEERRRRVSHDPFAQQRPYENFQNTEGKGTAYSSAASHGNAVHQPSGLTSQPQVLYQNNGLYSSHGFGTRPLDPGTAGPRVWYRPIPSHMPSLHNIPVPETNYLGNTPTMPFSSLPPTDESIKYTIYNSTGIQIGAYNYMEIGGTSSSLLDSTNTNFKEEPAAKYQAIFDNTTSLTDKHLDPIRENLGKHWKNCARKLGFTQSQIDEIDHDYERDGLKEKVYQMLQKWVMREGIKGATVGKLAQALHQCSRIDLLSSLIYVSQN
UniProt P63208: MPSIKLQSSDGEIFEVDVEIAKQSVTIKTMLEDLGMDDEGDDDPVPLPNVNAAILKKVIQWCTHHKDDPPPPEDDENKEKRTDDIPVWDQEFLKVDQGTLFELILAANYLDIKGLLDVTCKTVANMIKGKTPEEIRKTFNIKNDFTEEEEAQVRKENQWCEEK

binding [1] | binding [2] | binding [3] | binding [4] | binding [5] | binding [6] | Substance
no binding | binds | – | – | – | – | FADD (endogenous) (from UniProt Q13158 1-208)
– | binds | – | – | – | – | RIPK1 (endogenous) (from UniProt Q13546 1-671)
– | binds | binds weakly | binds | no binding | no binding | Skp1 (endogenous) (from UniProt P63208 1-163)
no binding | – | – | – | – | – | caspase-8 (endogenous) (from UniProt Q14790 1-479) (enzyme)
